Measured values from patent US20240158503A1.
No constants are given. Whether binding was seen depends on the method and setting. Some entries that bind do so weakly or less than the wild type. Values belong to the binder of their own block, whether it stands above or below them.

By UniProt entry, the sequences of proteins in these tests, tags left out. Residues count along the entry.
UniProt Q9Y279, residues 20-399: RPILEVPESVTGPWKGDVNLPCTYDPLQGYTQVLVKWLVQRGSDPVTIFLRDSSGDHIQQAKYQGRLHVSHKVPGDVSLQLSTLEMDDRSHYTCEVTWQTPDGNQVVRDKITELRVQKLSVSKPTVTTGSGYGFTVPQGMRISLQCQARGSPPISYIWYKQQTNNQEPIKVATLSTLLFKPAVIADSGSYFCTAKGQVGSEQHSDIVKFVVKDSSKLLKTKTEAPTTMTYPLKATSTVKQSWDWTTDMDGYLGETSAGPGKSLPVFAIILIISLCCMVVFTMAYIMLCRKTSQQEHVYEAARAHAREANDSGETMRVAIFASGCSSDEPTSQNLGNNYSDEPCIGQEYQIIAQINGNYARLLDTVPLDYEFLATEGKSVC

Columns and labels:
[1] = target: human VSIG4 overexpressed on HEK293E cells (human) (UniProt Q9Y279); assay: FACS on hVSIG4/HEK293E cells at 0.08, 0.4 and 2 ug/ml
[2] = target: human VSIG4 overexpressed on HEK293E cells (human) (UniProt Q9Y279); assay: FACS on hVSIG4/HEK293E against parental HEK293E cells
[3] = target: human VSIG4 overexpressed on HEK293E cells (human) (UniProt Q9Y279); assay: FACS on hVSIG4/HEK293E cells
[4] = target: human VSIG4 overexpressed on HEK293E cells (human) (UniProt Q9Y279); assay: flow cytometry titration on HEK293E cells expressing human VSIG4

binding [1]: binds
binding [2]: binds
binding [3]: binds
binding [4]: binds
B1: SA2281 (full-length human anti-VSIG4 monoclonal antibody, IgG form) (antibody, V domains shown)
VH: QVQLVESGGGVVQPGRSLRVSCAASGFTFSTYAMHWVRQAPGKGLEWLAVVSHDGTYKYYGDSVKGRFSISRDNSKNTLYLQMNSLRSEDTAVYYCGRHAAGSSFDYWGQGTVVTVSS
VL: DIQMTQSPSSLSASVGDRVTITCQASRDISNYLNWYQQKPGKAPKLLIYKTSNLQRGVPSRFSGSGSGTEFTLTISRLQPDDSATYYCQQSYRTPYTFGQGTKLEIK

binding [1]: binds
binding [2]: binds
binding [3]: binds
binding [4]: binds
B2: SA2297 (full-length human anti-VSIG4 monoclonal antibody, IgG form) (antibody, V domains shown)
VH: QVQLVESGGGVVQPGGSLRLSCAASGFIFSDYYMSWVRQAPGKGLEWVSYISPSGYTISYADSVKGRFTISRDNSKNSLYLQMNSLRAEDTAVYYCARRFSSSWSGYFDYWGHGALVTVSS
VL: DIQMTQSPSTLSASVGDRVTITCRASQNINRWLAWYQQKPGKAPKLLIYKAFRLHSGVPSRFSGSGSGTEFTLTITSLQPDDFATYYCQQYLSYSSSIFGQGTKVEIK
